These are yes or no findings as the source states them, for the method shown. Some binding calls cover weakened binding; strength is not graded here.

Amino acid sequences for entries named in this document (tags omitted). Residues count along the entry.
UniProt P05019, residues 49-118: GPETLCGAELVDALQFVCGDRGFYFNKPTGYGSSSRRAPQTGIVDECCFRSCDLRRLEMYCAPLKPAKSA

In this assay the target is biotinylated IGF-1 (UniProt P05019). Description: competition ELISA: antibody blocks binding of biotinylated IGF-1 to coated IGF-1R, fluorescence readout.

B1: antibody 40186 (antibody, human IgG1, lambda, V domains shown)
VH: QVELVESGGGLVQPGGSLRLSCAASGFTFSNYWMHWVRQAPGKGLEWVSGISGWSSWTYYADSVKGRFTISRDNSKNTLYLQMNSLRAEDTAVYYCARFGIDAYTKVYFDYWGQGTLVTVSS
VL: DIELTQPPSVSVAPGQTARISCSGDNIPLKYVSWYQQKPGQAPVLVIHDDNKRPSGIPERFSGSNSGNTATLTISGTQAEDEADYYCQSWASTGVVFGGGTKLTVLG
For the molecule B1, the binding entry is “binds”.

B2: antibody 40183 (antibody, human IgG1, lambda, V domains shown)
VH: QVELVESGGGLVQPGGSLRLSCAASGFTWSSFAMSWVRQAPGKGLEWVSYISYLGSYTGYADSVKGRFTISRDNSKNTLYLQMNSLRAEDTAVYYCARGTKFDYWGQGTLVTVSS
VL: DIVLTQPPSVSGAPGQRVTISCTGSSSNIGTYDVHWYQQLPGTAPKLLIYSNSKRPSGVPDRFSGSKSGTSASLAITGLQSEDEADYYCSITRVFGGGTKLTVLG
For the molecule B2, the binding result is reported as “binds”.
